# According to patent publication US10668122B2, “Extract of Toona sinensis from supercritical fluid extraction for treating diabetes and metabolic disease, the preparation method and the use thereof” (Metal Industries Research & Development Centre, priority 2009, dated 2020):
# At least one compound was matched to its structure with a doubt left.
# How the values were obtained:
# [1] = system: type 2 diabetic mouse model; assay: Anti-diabetic effect in vivo, type 2 diabetic mouse model (high-fat diet plus STZ injection); parameters: species or system C57BL/6J mice; conditions: rosiglitazone 150 μg/kg/day, monitored weekly
# Procedure: Eight-week-old male C57BL/6J mice were obtained from BioLASCO Technology (Charles River Taiwan Ltd.). All of the mice received standard animal care under supervision of the Institutional Animal Care and Use Committee of Kaohsiung Medical University, Taiwan. The mice were caged in an air-conditioned animal facility at 23° C. on a 12-h light/dark cycle and were maintained with free access to water and food. Animals were fed either a normal chow diet consisting (as a percentage of total kcal) of 11% fat, 65% carbohydrate, and 24% protein (Maintenance diet 1320, Altromin Spezialfutter GmbH & Co. KG, Germany) or a high-fat diet consisting of 45% fat, 35% carbohydrate, and 20% protein (D12451, Research Diets, Inc., New Brunswick, N.J., USA). […]
# Throughout the experiment, body weight and blood glucose from the tail tip were monitored weekly. Blood glucose was detected by the ACCU-CHEK blood glucose meter (Roche Diagnostics, Taipei, Taiwan). […]
# Insulin from plasma were detected by ELISA kits (Crystal Chem, Inc. Downers Grove, USA). The homeostasis model assessment of insulin resistance (HOMA-IR) was calculated using the following formula: fasting blood glucose (mg/dL)×fasting insulin (μU/mL)/405.
# [2] = system: adipose and hepatic tissues; assay: Morphological evaluation of adipose and hepatic tissues (H&E); type: in vivo, mouse; conditions: rosiglitazone 150 μg/kg/day, H&E sections
smiles,measurement,setting,value
CN(CCOc1ccc(CC2SC(=O)NC2=O)cc1)c1ccccn1 (stereo not drawn) [rosiglitazone],body weight change among the groups,[1],no significant difference
same,cell size of adipocytes relative to the DM group,[2],maintained cell sizes as large as those of the DM group
same,hepatosteatosis,[2],could effectively prevent the hepatosteatosis
